Data published in publication PMC7819943, “Rice protein-binding microarrays: a tool to detect cis-acting elements near promoter regions in rice”.
Some of the results follow.

biological target: T1, OsSMF1 (Oryza sativa, UniProt Q6ZLB0 1-436); assay: protein-binding microarray (RPBM); PBS, 2% BSA, 51.3 ng/ul salmon testes DNA, 50 uM zinc acetate, 200 nM TF, 25 C, 1 h; high values mean tight binding; conditions: protein: recombinant; tags: N-terminal polyhistidine and DsRed monomer fusion (pET32a); chain copies: 2; label: CyDye5-dUTP incorporated in the synthesized complementary strand; 3' TTTTT single-stranded linker to array surface; dsDNA, one strand shown
T1 sequence: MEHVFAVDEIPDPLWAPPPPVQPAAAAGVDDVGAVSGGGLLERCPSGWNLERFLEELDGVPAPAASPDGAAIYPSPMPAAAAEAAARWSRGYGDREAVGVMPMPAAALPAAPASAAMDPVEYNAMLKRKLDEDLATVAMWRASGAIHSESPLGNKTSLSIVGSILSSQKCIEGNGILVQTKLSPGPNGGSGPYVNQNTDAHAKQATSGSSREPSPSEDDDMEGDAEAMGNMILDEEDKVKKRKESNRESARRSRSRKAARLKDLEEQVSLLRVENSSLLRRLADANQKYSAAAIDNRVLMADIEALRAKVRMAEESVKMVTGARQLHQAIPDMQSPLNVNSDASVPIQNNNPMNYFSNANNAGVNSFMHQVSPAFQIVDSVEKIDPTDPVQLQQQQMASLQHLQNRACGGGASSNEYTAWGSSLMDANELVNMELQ
Summary of the method: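 An Axon 4000B scanner gave the binding signal as per-feature fluorescence intensity in arbitrary units. This followed washing of a custom Agilent array that had been incubated for 1 h at 25 °C with 200 nM protein in PBS, 2% BSA, salmon testes DNA and 50 µM zinc acetate. The proteins were transcription factors fused at the N-terminus to polyhistidine and DsRed, expressed in E. coli BL21-CodonPlus and purified on Ni–NTA.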

“TGCGGGCCACCATGCTAGCTAGTTTCCCTAAAAGAATATTCGGAGTCACCTAGTGCAG” was tested. Which binding signal did it give?
Its binding signal is 16500 fluorescence intensity (a.u.).

Which binding signal does the source give for “AGTTGATCGCGGTCAAATCGTCACGTTAGTTGAACCCGGTCGGAGTCACCTAGTGCAG” here?
The binding signal was 3340 fluorescence intensity (a.u.).

How did the binding signal turn out when “CGCTGACTTAGTTGCCACGTCAGACAAAACTGAGGTCAAACGGAGTCACCTAGTGCAG” was run?
Its binding signal is 15100 fluorescence intensity (a.u.).

With “AGTATATATATGGCCCAGCTAAATCTTCTGATAGGTGATGCGGAGTCACCTAGTGCAG” as the sequence, how does the binding signal read?
The binding signal was 3220 fluorescence intensity (a.u.).

Which binding signal does the source give for “CTATCCAAGAACAGCTTCATTTACAGAAACATTACCTACACGGAGTCACCTAGTGCAG” here?
Its binding signal is 3150 fluorescence intensity (a.u.).

With “GGCGGCGGCGGCGGGGCGGCGTGGCGCCGAGGGAGGGGAACGGAGTCACCTAGTGCAG” as the sequence, how does the binding signal read?
Its binding signal is 4760 fluorescence intensity (a.u.).

For “CTATCATATGTGTCACGTCATCTGGCTGTGGTACTACTGCCGGAGTCACCTAGTGCAG”, which binding signal is on record?
Its binding signal is 9860 fluorescence intensity (a.u.).

How did the binding signal turn out when “TCTGATATGGCATTGACGTGACACTTACGTGGCAATTCGACGGAGTCACCTAGTGCAG” was run?
The binding signal was 12500 fluorescence intensity (a.u.).

With “GCTCCGGCTCCCGACGACGCCGAACCAGGTCACCTTCTTCCGGAGTCACCTAGTGCAG” as the sequence, how does the binding signal read?
Its binding signal is 3150 fluorescence intensity (a.u.).

For “GACCTTTGGGTAGGGGTGGGGATGGGGCGAAATTACTAAACGGAGTCACCTAGTGCAG”, which binding signal is on record?
Its binding signal is 5610 fluorescence intensity (a.u.).

For “GTTCAAACTTTCCGAGTCAATCGGGAGGCGGAAGTACCTTCGGAGTCACCTAGTGCAG”, which binding signal is on record?
The binding signal was 3270 fluorescence intensity (a.u.).

Which binding signal does the source give for “GGCATCTTCTCAAGGACAGGTGTATTGACAACCTAACAAACGGAGTCACCTAGTGCAG” here?
The binding signal was 3320 fluorescence intensity (a.u.).

Which binding signal does the source give for “CCACCGGTGACACCAGCATCATCGTCGGTTTTCTCTCCCTCGGAGTCACCTAGTGCAG” here?
The binding signal was 3590 fluorescence intensity (a.u.).

“GAATTGGACATTTCTCGTAGGTGGCAATCGTAGTCCTAGGCGGAGTCACCTAGTGCAG” was tested. Which binding signal did it give?
Its binding signal is 6280 fluorescence intensity (a.u.).

“GACGATTTATAGGCGCGCCACGCATGGCGAGTTGGTCGCTCGGAGTCACCTAGTGCAG” was tested. Which binding signal did it give?
The binding signal was 5860 fluorescence intensity (a.u.).

Which binding signal does the source give for “GTGCAGTAGCTTCGCAGCGTCACCCCAACCCAGCGCGGGTCGGAGTCACCTAGTGCAG” here?
Its binding signal is 4100 fluorescence intensity (a.u.).

How did the binding signal turn out when “ACGTTGCATTCTGTATGACACGTGTCTAGTCCTAATCTCACGGAGTCACCTAGTGCAG” was run?
The binding signal was 15800 fluorescence intensity (a.u.).

With “GTCTGGTCGACCGCGAGTAGACCGCCCGTCGCCATTCTCCCGGAGTCACCTAGTGCAG” as the sequence, how does the binding signal read?
The binding signal was 3290 fluorescence intensity (a.u.).

How did the binding signal turn out when “GCTTCTCCCCGACACGCTCCACCGCCTCCGCCGCCTAGATCGGAGTCACCTAGTGCAG” was run?
The binding signal was 3350 fluorescence intensity (a.u.).

“TTTTGTGCAATCAGAACCTGTCAGATGAAGCTGTTGTTGGCGGAGTCACCTAGTGCAG” was tested. Which binding signal did it give?
Its binding signal is 3160 fluorescence intensity (a.u.).

Which binding signal does the source give for “GCACAGCAAAGTGTGACGGGGCAGCTACCTTGCACAGGTCCGGAGTCACCTAGTGCAG” here?
Its binding signal is 6850 fluorescence intensity (a.u.).

Which binding signal does the source give for “TTTCATACACATACGTATTACATATTGCATATACCTATTTCGGAGTCACCTAGTGCAG” here?
The binding signal was 3670 fluorescence intensity (a.u.).

With “GGGAATAACAATGGGAACGTCACCCCTTCCTGTACGGTTTCGGAGTCACCTAGTGCAG” as the sequence, how does the binding signal read?
Its binding signal is 5340 fluorescence intensity (a.u.).

With “CAATTCTAAGAATGAACCTGTACACACGTCATCTGGGAAGCGGAGTCACCTAGTGCAG” as the sequence, how does the binding signal read?
Its binding signal is 11300 fluorescence intensity (a.u.).

With “ACATACAGACACAGAAATACATAACAGAATAACCCAGTAGCGGAGTCACCTAGTGCAG” as the sequence, how does the binding signal read?
Its binding signal is 11800 fluorescence intensity (a.u.).

Which binding signal does the source give for “GTGACGCGTACAGGTCAGTGAGTCACTCCCTGACAGGTGGCGGAGTCACCTAGTGCAG” here?
The binding signal was 6880 fluorescence intensity (a.u.).

“GCCAAGCAAACAGGGTGTAGAAAACTAGAAACCCTCGCAACGGAGTCACCTAGTGCAG” was tested. Which binding signal did it give?
Its binding signal is 14200 fluorescence intensity (a.u.).

Which binding signal does the source give for “TGGAATCGAAATGGGGATCGATTAACTCGCTAGCGGCTAGCGGAGTCACCTAGTGCAG” here?
Its binding signal is 30700 fluorescence intensity (a.u.).

“TCCGTCCTCGTCACCGCCGCCACCGCCGCCCCACCGCCAGCGGAGTCACCTAGTGCAG” was tested. Which binding signal did it give?
The binding signal was 8360 fluorescence intensity (a.u.).

With “CTCTCCCGCCTCGCCCGTCGACGCCCGCGCCACGTGCAGCCGGAGTCACCTAGTGCAG” as the sequence, how does the binding signal read?
Its binding signal is 6190 fluorescence intensity (a.u.).

With “TGCCGTGTGTGTCCAGCTCGCGCGTTGGCCTCTCGCTGTCCGGAGTCACCTAGTGCAG” as the sequence, how does the binding signal read?
Its binding signal is 3650 fluorescence intensity (a.u.).

Which binding signal does the source give for “GTAGCAGAGCGGCGACGGGAACTCTAGCCTCCCAAGCAGCCGGAGTCACCTAGTGCAG” here?
The binding signal was 3530 fluorescence intensity (a.u.).

How did the binding signal turn out when “CATCAATTTCAAACCTCGAGTCATGGTTTTGCAAAGAAATCGGAGTCACCTAGTGCAG” was run?
The binding signal was 3230 fluorescence intensity (a.u.).

For “GTAACGTACCCATCAACAATGTTGATCCATGATGACTTCACGGAGTCACCTAGTGCAG”, which binding signal is on record?
The binding signal was 3180 fluorescence intensity (a.u.).

How did the binding signal turn out when “ATAAAAGAATCCTCCTGAATACCACGTGGCAATGAAATCACGGAGTCACCTAGTGCAG” was run?
Its binding signal is 8250 fluorescence intensity (a.u.).

How did the binding signal turn out when “GCGTGCGCACACGTGCCACCGCCACCGGCGTCCAGCCGGACGGAGTCACCTAGTGCAG” was run?
Its binding signal is 3400 fluorescence intensity (a.u.).

For “TTTAGGCAAGCTATGAAGATTTTGTGAGTTAGTGAGTGTGCGGAGTCACCTAGTGCAG”, which binding signal is on record?
The binding signal was 32300 fluorescence intensity (a.u.).

For “GCTTATCGATAAACTCAGTGTATTTGCATTCAAATTTTGACGGAGTCACCTAGTGCAG”, which binding signal is on record?
The binding signal was 3660 fluorescence intensity (a.u.).

“TCCATGTTCCGATCCCTCCACCTCACGCAGCTCATGCATTCGGAGTCACCTAGTGCAG” was tested. Which binding signal did it give?
The binding signal was 5740 fluorescence intensity (a.u.).

How did the binding signal turn out when “AATTCATACAATAGTTGCTTACTATATTATTAATACCTTGCGGAGTCACCTAGTGCAG” was run?
Its binding signal is 3710 fluorescence intensity (a.u.).

“TGCGGTATCCTTGTTATCGTCATCACTCCATCACCCTTATCGGAGTCACCTAGTGCAG” was tested. Which binding signal did it give?
Its binding signal is 6150 fluorescence intensity (a.u.).

With “CTGCGTGAACAGAGATGATCCGTCTCATCCTGTCATCCACCGGAGTCACCTAGTGCAG” as the sequence, how does the binding signal read?
Its binding signal is 4660 fluorescence intensity (a.u.).

“ATCATGACATAATTAGACTCAAAAGATTCGTCTTGTGAATCGGAGTCACCTAGTGCAG” was tested. Which binding signal did it give?
The binding signal was 3800 fluorescence intensity (a.u.).

How did the binding signal turn out when “GGTAGTCGGCGGAGGTGGCGAGGTCGAGGGAGGGGAAGATCGGAGTCACCTAGTGCAG” was run?
The binding signal was 3570 fluorescence intensity (a.u.).

Which binding signal does the source give for “TACATCTCGACACACCTACGTGGATGGATATACTCGCTCTCGGAGTCACCTAGTGCAG” here?
Its binding signal is 3200 fluorescence intensity (a.u.).

For “ATAGTTAAATTTTCACTTTTGAGTCATCTTTCAACTAATCCGGAGTCACCTAGTGCAG”, which binding signal is on record?
The binding signal was 4800 fluorescence intensity (a.u.).

Which binding signal does the source give for “GAACTGGTACACCACTGTAGTCAAATAAATGTGGGCCTATCGGAGTCACCTAGTGCAG” here?
The binding signal was 32400 fluorescence intensity (a.u.).

How did the binding signal turn out when “AATTACTCAAGTGTGTGTGCTGAATTGCAAACATCCTCTACGGAGTCACCTAGTGCAG” was run?
The binding signal was 30200 fluorescence intensity (a.u.).

“CCGTGCTCGCCGCCGTCAACTTGGGCTACTTCCTTTTGTGCGGAGTCACCTAGTGCAG” was tested. Which binding signal did it give?
Its binding signal is 3720 fluorescence intensity (a.u.).

How did the binding signal turn out when “GGCAACAATCGAGGCATGGGTGGCATACTGGCATAGCTCCCGGAGTCACCTAGTGCAG” was run?
The binding signal was 3270 fluorescence intensity (a.u.).

For “TGCTGATCCGTCGCATGTCACGCCGCCACCAAGACCCACCCGGAGTCACCTAGTGCAG”, which binding signal is on record?
The binding signal was 4490 fluorescence intensity (a.u.).

How did the binding signal turn out when “AATTCAATTTAAAATATTTTAAGCTAATACTTAATTAATCCGGAGTCACCTAGTGCAG” was run?
Its binding signal is 21900 fluorescence intensity (a.u.).

How did the binding signal turn out when “TTCAGGTCAGGTGAGAGCACTTCCTCCCTGTCATTATCCGCGGAGTCACCTAGTGCAG” was run?
Its binding signal is 3830 fluorescence intensity (a.u.).

“AAATAAACCTATAGCAAGCAATATACACATCATTGTCTTACGGAGTCACCTAGTGCAG” was tested. Which binding signal did it give?
The binding signal was 4710 fluorescence intensity (a.u.).
